Publication PMC11788220
No constants are given. Whether binding was seen depends on the method and setting. In cells and extracts the contact can be indirect. Some entries that bind do so weakly or less than the wild type. Where a sequence is shown, tags or fusion partners need not be part of it.

By UniProt entry, the sequences of proteins in these tests, tags left out. Residues count along the entry.
UniProt Q9Z0U4, residues 20-960: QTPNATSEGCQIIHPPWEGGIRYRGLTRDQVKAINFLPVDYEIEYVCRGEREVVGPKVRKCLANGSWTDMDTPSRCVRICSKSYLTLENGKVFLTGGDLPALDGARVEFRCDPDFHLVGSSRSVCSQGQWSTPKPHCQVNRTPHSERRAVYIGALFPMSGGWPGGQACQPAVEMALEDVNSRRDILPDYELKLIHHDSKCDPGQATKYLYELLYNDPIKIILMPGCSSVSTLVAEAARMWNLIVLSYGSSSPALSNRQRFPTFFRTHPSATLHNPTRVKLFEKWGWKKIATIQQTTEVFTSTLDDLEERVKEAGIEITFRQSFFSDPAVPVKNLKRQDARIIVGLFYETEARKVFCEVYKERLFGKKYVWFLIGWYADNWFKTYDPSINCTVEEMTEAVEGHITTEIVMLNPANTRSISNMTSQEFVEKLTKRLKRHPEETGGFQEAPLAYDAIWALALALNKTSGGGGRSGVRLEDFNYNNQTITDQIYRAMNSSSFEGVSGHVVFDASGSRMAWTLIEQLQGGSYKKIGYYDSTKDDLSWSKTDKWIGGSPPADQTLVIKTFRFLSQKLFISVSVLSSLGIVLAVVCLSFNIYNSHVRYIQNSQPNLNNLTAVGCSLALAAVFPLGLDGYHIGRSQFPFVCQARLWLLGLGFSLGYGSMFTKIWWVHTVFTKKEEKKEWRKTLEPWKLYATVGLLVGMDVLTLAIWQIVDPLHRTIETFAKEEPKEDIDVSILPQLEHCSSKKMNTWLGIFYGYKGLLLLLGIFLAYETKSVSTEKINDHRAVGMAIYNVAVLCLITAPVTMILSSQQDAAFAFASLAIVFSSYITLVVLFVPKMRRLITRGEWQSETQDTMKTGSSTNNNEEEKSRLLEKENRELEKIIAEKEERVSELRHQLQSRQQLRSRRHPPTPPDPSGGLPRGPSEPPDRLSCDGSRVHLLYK

Molecular target: myc-tagged GABABR1a (rat) (UniProt Q9Z0U4)
Test: co-IP; HEK-293 T cells lysed 24 h after transfection with GABABR1^myc and wild-type or mutant GABABR2^flag; lysate incubated overnight at 4°C with Dynabeads protein G conjugated to rabbit anti-myc antibody; washes with decreasing molarity of NaCl; western blot with anti-FLAG, stripped and reprobed with anti-GABABR1; band intensity analysed in ImageJ

- binding: binds
B1: flag-tagged GABABR2 (wild-type) (receptor, UniProt O88871 41-940)
chain: WTRGAPRPPPSSPPLSIMGLMPLTKEVAKGSIGRGVLPAVELAIEQIRNESLLRPYFLDLRLYDTECDNAKGLKAFYDAIKYGPNHLMVFGGVCPSVTSIIAESLQGWNLVQLSFAATTPVLADKKKYPYFFRTVPSDNAVNPAILKLLKHFRWRRVGTLTQDVQRFSEVRNDLTGVLYGEDIEISDTESFSNDPCTSVKKLKGNDVRIILGQFDQNMAAKVFCCAFEESMFGSKYQWIIPGWYEPAWWEQVHVEANSSRCLRRSLLAAMEGYIGVDFEPLSSKQIKTISGKTPQQFEREYNSKRSGVGPSKFHGYAYDGIWVIAKTLQRAMETLHASSRHQRIQDFNYTDHTLGKIILNAMNETNFFGVTGQVVFRNGERMGTIKFTQFQDSREVKVGEYNAVADTLEIINDTIRFQGSEPPKDKTIILEQLRKISLPLYSILSALTILGMIMASAFLFFNIKNRNQKLIKMSSPYMNNLIILGGMLSYASIFLFGLDGSFVSEKTFETLCTVRTWILTVGYTTAFGAMFAKTWRVHAIFKNVKMKKKIIKDQKLLVIVGGMLLIDLCILICWQAVDPLRRTVERYSMEPDPAGRDISIRPLLEHCENTHMTIWLGIVYAYKGLLMLFGCFLAWETRNVSIPALNDSKYIGMSVYNVGIMCIIGAAVSFLTRDQPNVQFCIVALVIIFCSTITLCLVFVPKLITLRTNPDAATQNRRFQFTQNQKKEDSKTSTSVTSVNQASTSRLEGLQSENHRLRMKITELDKDLEEVTMQLQDTPEKTTYIKQNHYQELNDILSLGNFTESTDGGKAILKNHLDQNPQLQWNTTEPSRTCKDPIEDINSPEHIQRRLSLQLPILHHAYLPSIGGVDASCVSPCVSPTASPRHRHVPPSFRVMVSGL
